Source: article PMC4587736
These are yes or no findings as the source states them, for the method shown. Tags and fused reporters may be left off the sequences shown.

How the values were obtained:
[1] = biological target: T1, SmKIN3 fused to the GAL4 DNA-binding domain (pBD-SmKIN3) (Sordaria macrospora) (UniProt F7VYS5); experiment: two-hybrid; Matchmaker two-hybrid system 3; kinases fused to GAL4 binding domain (pGBKT7, Y187), partners fused to GAL4 activation domain (pGADT7, AH109); mated diploids, drop plate assay on SD without leu, trp and ade
T1 sequence: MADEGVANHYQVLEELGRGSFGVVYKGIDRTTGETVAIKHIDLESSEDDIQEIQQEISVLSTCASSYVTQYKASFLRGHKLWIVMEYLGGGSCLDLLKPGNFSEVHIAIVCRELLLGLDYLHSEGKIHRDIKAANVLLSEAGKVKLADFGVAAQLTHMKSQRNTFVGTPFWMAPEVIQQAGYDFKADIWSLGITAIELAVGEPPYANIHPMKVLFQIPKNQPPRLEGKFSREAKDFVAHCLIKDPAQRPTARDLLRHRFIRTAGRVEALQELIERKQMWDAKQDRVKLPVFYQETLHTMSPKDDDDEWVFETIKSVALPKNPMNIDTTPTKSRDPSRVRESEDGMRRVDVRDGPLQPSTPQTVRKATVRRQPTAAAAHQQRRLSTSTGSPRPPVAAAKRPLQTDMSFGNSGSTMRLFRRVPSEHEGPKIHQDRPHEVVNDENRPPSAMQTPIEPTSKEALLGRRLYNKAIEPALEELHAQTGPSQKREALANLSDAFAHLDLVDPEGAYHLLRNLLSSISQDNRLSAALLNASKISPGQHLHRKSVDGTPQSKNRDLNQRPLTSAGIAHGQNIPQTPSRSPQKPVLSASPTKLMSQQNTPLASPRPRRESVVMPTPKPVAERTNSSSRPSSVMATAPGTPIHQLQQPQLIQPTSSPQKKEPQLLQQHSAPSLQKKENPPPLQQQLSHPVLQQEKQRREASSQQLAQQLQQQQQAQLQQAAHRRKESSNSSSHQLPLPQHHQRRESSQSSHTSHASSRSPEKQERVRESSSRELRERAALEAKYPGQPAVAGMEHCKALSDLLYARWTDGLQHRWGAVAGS

[2] = biological target: T2, SmKIN24 fused to the GAL4 DNA-binding domain (pBD-SmKIN24) (Sordaria macrospora) (UniProt F7VQV9); experiment: as above
T2 sequence: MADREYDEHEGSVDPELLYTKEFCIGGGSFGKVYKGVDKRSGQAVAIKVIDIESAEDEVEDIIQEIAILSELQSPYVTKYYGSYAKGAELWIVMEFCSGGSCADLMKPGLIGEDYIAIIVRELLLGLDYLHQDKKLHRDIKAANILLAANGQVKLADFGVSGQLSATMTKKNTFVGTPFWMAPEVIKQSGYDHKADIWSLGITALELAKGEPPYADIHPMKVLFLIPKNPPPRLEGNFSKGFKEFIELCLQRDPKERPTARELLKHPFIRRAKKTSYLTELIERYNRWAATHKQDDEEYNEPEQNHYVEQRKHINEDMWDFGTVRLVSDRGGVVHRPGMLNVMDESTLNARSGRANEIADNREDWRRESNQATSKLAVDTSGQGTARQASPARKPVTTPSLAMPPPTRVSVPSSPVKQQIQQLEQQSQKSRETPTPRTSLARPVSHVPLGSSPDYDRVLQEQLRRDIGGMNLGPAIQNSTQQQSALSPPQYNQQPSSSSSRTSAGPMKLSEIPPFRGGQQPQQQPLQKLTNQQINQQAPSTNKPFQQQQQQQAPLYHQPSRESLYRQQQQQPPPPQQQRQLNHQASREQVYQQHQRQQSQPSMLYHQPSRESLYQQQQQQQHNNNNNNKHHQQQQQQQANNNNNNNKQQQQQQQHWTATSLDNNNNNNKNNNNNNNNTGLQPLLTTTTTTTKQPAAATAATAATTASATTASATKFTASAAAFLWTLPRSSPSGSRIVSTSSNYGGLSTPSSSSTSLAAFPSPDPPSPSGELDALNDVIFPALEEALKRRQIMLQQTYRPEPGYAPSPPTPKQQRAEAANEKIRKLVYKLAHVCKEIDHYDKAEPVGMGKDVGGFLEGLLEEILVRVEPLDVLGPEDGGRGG

binding [1]: no binding
binding [2]: no binding
Substance: SmMOB3 fused to the GAL4 activation domain (Sordaria macrospora)
